The assay has as its target Synaptojanin 1 (SYNJ1) (human) (UniProt O43426). Description: BioID in HEK293T cells with BirA*-tagged SYNJ1 (which of the two fusions is not said).

By UniProt entry, the sequences of proteins in these tests, tags left out. Residues count along the entry.
UniProt O43426: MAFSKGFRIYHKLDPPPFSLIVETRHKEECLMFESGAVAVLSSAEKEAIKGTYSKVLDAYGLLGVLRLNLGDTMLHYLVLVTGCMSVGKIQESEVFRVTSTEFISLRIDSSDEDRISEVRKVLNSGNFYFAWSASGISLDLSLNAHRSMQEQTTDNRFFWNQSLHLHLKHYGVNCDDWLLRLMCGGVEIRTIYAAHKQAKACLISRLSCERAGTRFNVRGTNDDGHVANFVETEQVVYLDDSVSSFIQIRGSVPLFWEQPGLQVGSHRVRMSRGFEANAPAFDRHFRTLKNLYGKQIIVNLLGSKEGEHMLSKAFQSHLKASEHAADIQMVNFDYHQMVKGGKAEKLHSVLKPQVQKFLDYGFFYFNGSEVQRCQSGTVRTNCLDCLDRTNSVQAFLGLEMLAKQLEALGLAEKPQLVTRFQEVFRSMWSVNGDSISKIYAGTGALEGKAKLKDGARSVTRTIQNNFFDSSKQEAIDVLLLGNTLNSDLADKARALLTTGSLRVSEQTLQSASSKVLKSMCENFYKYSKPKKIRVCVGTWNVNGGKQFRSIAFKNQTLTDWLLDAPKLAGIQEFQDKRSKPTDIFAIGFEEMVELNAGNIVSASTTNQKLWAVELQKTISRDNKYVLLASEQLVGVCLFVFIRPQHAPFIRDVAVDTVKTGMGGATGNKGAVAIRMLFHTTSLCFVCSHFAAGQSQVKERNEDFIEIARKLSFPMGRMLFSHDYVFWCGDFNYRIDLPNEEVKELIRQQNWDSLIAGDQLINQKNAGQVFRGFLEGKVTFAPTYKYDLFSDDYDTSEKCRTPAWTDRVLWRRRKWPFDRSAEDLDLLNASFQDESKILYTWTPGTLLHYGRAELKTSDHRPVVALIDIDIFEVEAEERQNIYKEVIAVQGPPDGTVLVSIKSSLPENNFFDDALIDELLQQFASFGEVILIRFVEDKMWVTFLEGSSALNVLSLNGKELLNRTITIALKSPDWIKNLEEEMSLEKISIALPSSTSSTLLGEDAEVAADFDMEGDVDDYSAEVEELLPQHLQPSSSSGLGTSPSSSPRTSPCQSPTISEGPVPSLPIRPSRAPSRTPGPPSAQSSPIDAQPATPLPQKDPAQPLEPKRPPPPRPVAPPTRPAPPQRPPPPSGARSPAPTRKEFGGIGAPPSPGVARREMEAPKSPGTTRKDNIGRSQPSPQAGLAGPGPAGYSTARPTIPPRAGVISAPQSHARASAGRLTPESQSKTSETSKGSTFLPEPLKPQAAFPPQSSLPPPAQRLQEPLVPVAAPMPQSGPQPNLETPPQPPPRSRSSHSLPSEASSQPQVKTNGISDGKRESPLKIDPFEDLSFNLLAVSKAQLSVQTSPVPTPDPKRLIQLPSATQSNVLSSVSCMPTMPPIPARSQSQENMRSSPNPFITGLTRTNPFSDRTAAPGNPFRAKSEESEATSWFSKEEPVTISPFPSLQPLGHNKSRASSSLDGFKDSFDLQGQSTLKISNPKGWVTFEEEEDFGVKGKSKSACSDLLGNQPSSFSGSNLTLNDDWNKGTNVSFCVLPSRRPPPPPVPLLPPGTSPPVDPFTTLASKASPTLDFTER
UniProt P32019, residues 1-990: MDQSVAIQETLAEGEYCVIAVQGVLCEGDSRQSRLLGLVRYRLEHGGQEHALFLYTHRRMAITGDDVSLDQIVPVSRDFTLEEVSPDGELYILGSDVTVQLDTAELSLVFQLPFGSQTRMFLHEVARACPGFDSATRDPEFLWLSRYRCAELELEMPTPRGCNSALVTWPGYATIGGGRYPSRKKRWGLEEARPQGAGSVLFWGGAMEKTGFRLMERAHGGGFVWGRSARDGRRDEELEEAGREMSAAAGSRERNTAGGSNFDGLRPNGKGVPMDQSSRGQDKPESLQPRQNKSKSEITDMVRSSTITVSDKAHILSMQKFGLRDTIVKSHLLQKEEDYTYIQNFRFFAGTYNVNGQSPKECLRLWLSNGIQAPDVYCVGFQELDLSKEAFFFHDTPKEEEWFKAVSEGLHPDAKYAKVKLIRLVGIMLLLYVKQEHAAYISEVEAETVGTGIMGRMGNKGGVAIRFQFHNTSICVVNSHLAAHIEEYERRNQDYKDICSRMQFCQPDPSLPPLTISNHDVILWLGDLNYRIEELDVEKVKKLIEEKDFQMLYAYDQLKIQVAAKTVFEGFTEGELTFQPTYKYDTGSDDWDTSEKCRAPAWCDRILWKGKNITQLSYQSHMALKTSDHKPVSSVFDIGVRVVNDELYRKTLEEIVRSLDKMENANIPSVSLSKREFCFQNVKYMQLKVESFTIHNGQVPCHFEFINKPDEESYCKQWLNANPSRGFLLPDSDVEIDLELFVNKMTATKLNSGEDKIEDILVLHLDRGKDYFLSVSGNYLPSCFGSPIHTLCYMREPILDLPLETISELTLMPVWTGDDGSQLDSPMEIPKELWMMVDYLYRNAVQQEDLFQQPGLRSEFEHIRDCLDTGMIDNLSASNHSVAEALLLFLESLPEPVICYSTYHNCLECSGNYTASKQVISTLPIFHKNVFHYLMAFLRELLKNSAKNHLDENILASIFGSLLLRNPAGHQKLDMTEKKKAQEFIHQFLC

No constants are given. Whether binding was seen depends on the method and setting. Some entries that bind do so weakly or less than the wild type.

Turning to “INPP5B (HEK293T cells) (from UniProt P32019 1-990) (enzyme)”, the binding result is reported as “binds”.

The record behind these values is patent publication US20260243776A1, “A METHOD FOR DETECTING PROTEIN TARGETS OF AN ENZYME USING A BIOTIN LIGASE” (Leibniz-Institut für Alternsforschung - …, priority 2022, published 2026).
